## Percent effect of library compounds

The chains behind the UniProt entries cited, without tags or fusion partners.
UniProt P9WPC5, whole entry: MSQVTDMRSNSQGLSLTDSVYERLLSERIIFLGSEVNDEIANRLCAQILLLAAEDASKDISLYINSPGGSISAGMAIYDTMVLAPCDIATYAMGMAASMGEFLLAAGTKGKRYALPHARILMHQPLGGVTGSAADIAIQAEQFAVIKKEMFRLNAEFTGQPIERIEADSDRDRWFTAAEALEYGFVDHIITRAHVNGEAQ
UniProt P9WPC3, whole entry partner: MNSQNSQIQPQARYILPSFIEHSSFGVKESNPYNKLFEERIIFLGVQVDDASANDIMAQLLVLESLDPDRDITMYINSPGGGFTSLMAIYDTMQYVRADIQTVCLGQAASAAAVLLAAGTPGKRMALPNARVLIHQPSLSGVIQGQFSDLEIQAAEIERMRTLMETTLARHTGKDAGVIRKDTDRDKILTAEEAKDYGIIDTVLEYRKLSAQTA
UniProt P9WNZ1, whole entry: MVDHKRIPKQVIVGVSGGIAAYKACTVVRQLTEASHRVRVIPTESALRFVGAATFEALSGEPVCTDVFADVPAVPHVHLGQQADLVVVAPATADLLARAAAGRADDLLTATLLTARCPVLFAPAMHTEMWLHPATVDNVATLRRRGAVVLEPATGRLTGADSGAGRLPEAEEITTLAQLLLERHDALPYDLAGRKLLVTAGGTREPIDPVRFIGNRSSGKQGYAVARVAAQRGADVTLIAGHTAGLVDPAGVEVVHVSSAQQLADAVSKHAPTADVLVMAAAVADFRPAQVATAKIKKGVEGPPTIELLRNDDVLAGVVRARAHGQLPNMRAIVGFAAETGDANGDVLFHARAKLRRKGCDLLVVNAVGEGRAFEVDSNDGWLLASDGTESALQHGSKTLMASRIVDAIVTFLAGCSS

Measurements from “University of Dundee, Small-Polar-MMV Screening Library” (2021), ChEMBL document CHEMBL3988442.

Toxoplasma: 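Assay of Toxoplasma gondii numbers, read through their beta-galactosidase reporter with a colour substrate. Compounds at 10 µM. Higher reads as fewer parasites (inferred from which compounds were picked for retests). Size under these conditions: about 67,000 compounds, about 260 of them at 50% or above in at least one test.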
ClpP1P2: 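Protease assay of ClpP1P2, read by the AMC dye that it sets free. Target: ClpP1P2, Mycobacterium tuberculosis (UniProt P9WPC5 and UniProt P9WPC3). Compounds at 50 µM. Higher reads as stronger inhibition, judged from the few compounds that gave an IC50. Most other retested compounds had strongly negative values. Of about 69,000 compounds tested this way, about 10 (0.015%) reached 50% or more in at least one test.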
T. brucei: 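Whole-parasite assay of Trypanosoma brucei over 72 hours; the read-out is not stated. Tested at 30 µM. The record gives no direction; compounds that gave an IC50 in retests scored well above the rest, so higher reads as stronger inhibition. Values scatter widely below zero; nearly all retest evidence comes from the higher of the two concentrations used. Of about 64,000 compounds tested this way, about 940 (1.5%) reached 50% or more in at least one test.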
CoaBC: 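Coenzyme A biosynthesis protein CoaBC, Mycobacterium tuberculosis (UniProt P9WNZ1). Enzyme assay of CoaBC with a phosphate dye (Biomol Green) read at 650 nm. Concentration: 30 µM. Higher reads as stronger inhibition, judged from the few compounds that gave an IC50. Most strong results did not repeat in a second test. Size under these conditions: about 67,000 compounds, about 40 of them at 50% or above in at least one test.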

Results are given as percent effect. The controls that fix the scale are not given in the record; negative values are as filed. The compounds are a random part of those screened. A dash means the value is not listed here; it may have been measured.

| Compound | Toxoplasma | ClpP1P2 | T. brucei | CoaBC |
|---|---|---|---|---|
| `Fc1cccc(CN2C[C@@H]3CN(Cc4ccccn4)C[C@@H]3C2)c1` | - | 1.035% | - | 0.6435% |
| `Cc1cc(C(=O)N2CCC[C@]3(C[C@H](OCC4CC4)CO3)C2)no1` | -12.42% | 11.45% | -152% | -4.75% |
| `CC(=O)N(C)Cc1cncc(C2CCCN2C2CCOCC2)n1` (centres unmarked) | -3.821% | -13.15% | -10.89% | 3.679% |
| `CCN1CCOCC2(CCCN(C(=O)c3ccncc3F)C2)C1.O=C(O)C(F)(F)F` (centres unmarked) | 7.916% | - | 4.426% | - |
| `CCN(CC)C1CCN(C(=O)c2cc3cc(C)cc(C)c3nc2C)CC1.Cl` | -21.45% | - | 15.6% | - |
| `CCn1cnnc1CN(C)C(=O)C1CCC(=O)N(CC2CCCCC2)C1` (centres unmarked) | 3.585% | -5.256% | 8.812% | 4.37% |
| `COCCNC(=O)C1CN(Cc2cccnc2)Cc2ccnn2C1.O=C(O)C(F)(F)F.O=C(O)C(F)(F)F.O=C(O)C(F)(F)F` (centres unmarked) | -0.1597% | - | -11.65% | - |
| `CN(C)Cc1ccnc(C2CN(Cc3nccs3)CCO2)n1` (centres unmarked) | -0.9849% | -4.934% | 3.738% | 3.39% |
| `Cc1cnn(CC2CCCN2C(=O)c2cccc(CC#N)c2)c1` (centres unmarked) | - | 3.842% | -9.249% | -10.54% |
| `c1cnc(N2CCOC3(COCCN(Cc4cc[nH]n4)C3)C2)nc1` (centres unmarked) | - | 12.37% | - | 6.667% |
| `Cc1cccnc1N1CC2(CCN(Cc3cccnc3)C2)C1` | - | 8.439% | - | 2.703% |
| `CC(=O)N1CCC(N2CC[C@H](c3nc4cc(C)ccc4o3)C2)CC1` | 20.35% | -10.19% | -0.7229% | 7.662% |
| `CN(C)c1cc(C(=O)N2CCCCC2CNS(C)(=O)=O)ccn1` (centres unmarked) | 10.67% | -44.78% | - | 2.35% |
| `C[C@@H]1CN(C(=O)C2CCS(=O)(=O)CC2)C[C@]1(C)O` | 4.798% | -0.5295% | -2.724% | 17.62% |
| `CCN(C)Cc1cccc(CNC(=O)NCCc2ccccn2)c1` | -0.5093% | -7.673% | 12.95% | 1.294% |
| `Cc1noc(C(C)C)c1C(=O)NCCC(=O)N1CCCCC1` | -1.361% | -6.741% | - | 3.823% |
| `CCCc1n[nH]c(C2CN(C(=O)c3cncnc3C)CCO2)n1` (centres unmarked) | 1.22% | -16.7% | -14.77% | 3.448% |
| `[H][C@@]12CCN(C[C@@H]1CC)[C@@H](CNC(=O)Nc1cc(OC)cc(OC)c1)C2` | 1.725% | - | 0.9898% | - |
| `CCN(CC)C(=O)Cn1ccc2cc(NC(=O)NC3CC3)ccc21` | -7.273% | -15.87% | 10.03% | 2.915% |
| `CC(C)N1C(=O)CN(CCOCCO)CC1(C)C` | -3.603% | -9.098% | - | 7.135% |
| `c1cnc(-c2noc(C3CN(Cc4ccc5c(c4)CCO5)C3)n2)nc1` | - | 3.559% | - | 8.668% |
| `O=C(O)C(F)(F)F.O=C(O)C(F)(F)F.[H][C@@]12CN(CC3CC3)C[C@]1([H])OCCN2Cc1c(C)noc1C` | -4.044% | - | 9.74% | - |
| `O=C(COc1ccccc1Br)N1CCOc2ccncc21` | -0.7491% | -6.97% | -3.927% | 4.303% |
| `CCc1ccc(C(=O)NC(C)c2ccc(S(C)(=O)=O)c(F)c2)o1` (centres unmarked) | -4.607% | -2.095% | -15.37% | 4.747% |
| `Cn1ccc(C(=O)N2CCC(Cc3cnc4[nH]ccc4c3)C2)n1` (centres unmarked) | 18.29% | 10.57% | 15.18% | 8.232% |
| `CC(C)n1ncc2cc(NC(=O)N3CCSCC3)cnc21` | -26.83% | 0.02887% | 1.72% | -0.5102% |
| `Brc1ccc(-c2nnc(CN(Cc3cccs3)CC3CCCO3)o2)s1` (centres unmarked) | 7.273% | 1.958% | -7.608% | 3.113% |
| `Cc1csc(CN2CC[C@H]3C[C@H](c4nnc(C)[nH]4)O[C@@H]3C2)n1` | - | -0.5314% | - | 13.55% |
| `O=C(NCc1ccc(Br)c(F)c1)Nc1cn[nH]c1` | -19.09% | -12.13% | -42.7% | 8.156% |
| `Cc1oncc1C(=O)N1CCC2(CCN(Cc3cccc(F)c3)C2=O)C1` (centres unmarked) | -7.273% | -12.81% | -47.27% | 10.18% |
| `COC(=O)CCn1ccc(=O)c2ccc(OC)cc21` | 3.045% | 13.23% | -76.02% | -0.8092% |
| `COc1nn(C)cc1C(=O)N1CCC(C)CC1` | 21.45% | 19.32% | -14.73% | 0.1318% |
| `O=C(c1cc2cc(I)ccc2[nH]1)N1CCC(Nc2cccnn2)CC1` | 27.49% | -18.02% | 85.16% | -8.731% |
| `Fc1ccc(-c2nnc(CN3CCOC(Cn4cncn4)C3)o2)cc1` (centres unmarked) | -0.6353% | 0.1356% | -19.29% | 1.446% |
| `CC(NC(=O)NCCCn1cccn1)c1ccccn1` (centres unmarked) | 8.953% | 0.09165% | -5.087% | 2.893% |
| `COCCN1CCCC2(CCN(c3ccsc3)C2=O)C1.O=C(O)C(F)(F)F` (centres unmarked) | 6.173% | - | -21.02% | - |
| `CCC(=O)N1CCCC(c2cc(Nc3ncccn3)nc(C)n2)C1` (centres unmarked) | -0.5766% | 1.957% | 16.15% | 1.944% |
| `COc1ccc(CCNC2CCCN(c3ccc(C)nn3)C2)cc1` (centres unmarked) | -2.875% | -1.884% | 5.253% | -16.47% |
| `[H][C@]12CC[C@]([H])(CN(c3nccc(C4CCCC4)n3)C1)N(CCOC)C2=O` | -8.467% | - | -24.88% | - |
| `CSCCC(C)(O)CNC(=O)Nc1ccccc1C` (centres unmarked) | -0.1287% | -2.973% | 8.322% | 0.6342% |
| `CCOc1cc(=O)n2c(c1C(=O)OCc1cccc(C)c1)CCCC2` | - | 7.944% | -31.63% | -0.8505% |
| `CCc1n[nH]c(C2CN(C(=O)c3ncoc3CC)CCO2)n1` (centres unmarked) | 0.3839% | -17.08% | - | 4.301% |
| `CC(O)CC(C)(C)CNC(=O)Nc1cnn(-c2ccccc2F)c1` (centres unmarked) | 4.017% | -8.124% | -53.79% | 5.063% |
| `Cc1noc(C2CCN(C(=O)c3cc(Br)ccc3F)CC2)n1` | 3.127% | 7.384% | -7.506% | 7.127% |
| `CC1CCCN(Cc2c(C3CCOCC3)[nH]c3ncccc23)C1` (centres unmarked) | 16.21% | 18.33% | -27.66% | 4.167% |
| `Cc1ccc(CN2CCOC3(CCN(C(=O)C4CC=CC4)CC3)C2)cc1.O=C(O)C(F)(F)F` | 14.3% | - | -30.94% | - |
| `Cc1cc(-c2ccc(=O)n(C3CCN(S(=O)(=O)N(C)C)CC3)n2)c(C)o1` | - | 11.39% | - | 4.988% |
| `Cc1nn(C)c(C)c1CN1CCCC(c2ccc(C(=O)O)cc2)C1` (centres unmarked) | -13.04% | -8.458% | -5.093% | -1.229% |

3 of the entries, repeated:

| Compound | Toxoplasma | ClpP1P2 | T. brucei | CoaBC |
|---|---|---|---|---|
| `Cc1cnn(CC2CCCN2C(=O)c2cccc(CC#N)c2)c1` (centres unmarked) | - | 3.842% | -9.249% | -10.54% |
| `CCN1CCOCC2(CCCN(C(=O)c3ccncc3F)C2)C1.O=C(O)C(F)(F)F` (centres unmarked) | 7.916% | - | 4.426% | - |
| `Cc1ccc(CN2CCOC3(CCN(C(=O)C4CC=CC4)CC3)C2)cc1.O=C(O)C(F)(F)F` | 14.3% | - | -30.94% | - |